Test results: paper PMC11288429
Results are given in words; binding and its absence hold for the method and conditions named. Binding seen in cells or lysates may run through a third protein. Some entries that bind do so weakly or less than the wild type.

By UniProt entry, the sequences of proteins in these tests, tags left out.
UniProt Q8C863: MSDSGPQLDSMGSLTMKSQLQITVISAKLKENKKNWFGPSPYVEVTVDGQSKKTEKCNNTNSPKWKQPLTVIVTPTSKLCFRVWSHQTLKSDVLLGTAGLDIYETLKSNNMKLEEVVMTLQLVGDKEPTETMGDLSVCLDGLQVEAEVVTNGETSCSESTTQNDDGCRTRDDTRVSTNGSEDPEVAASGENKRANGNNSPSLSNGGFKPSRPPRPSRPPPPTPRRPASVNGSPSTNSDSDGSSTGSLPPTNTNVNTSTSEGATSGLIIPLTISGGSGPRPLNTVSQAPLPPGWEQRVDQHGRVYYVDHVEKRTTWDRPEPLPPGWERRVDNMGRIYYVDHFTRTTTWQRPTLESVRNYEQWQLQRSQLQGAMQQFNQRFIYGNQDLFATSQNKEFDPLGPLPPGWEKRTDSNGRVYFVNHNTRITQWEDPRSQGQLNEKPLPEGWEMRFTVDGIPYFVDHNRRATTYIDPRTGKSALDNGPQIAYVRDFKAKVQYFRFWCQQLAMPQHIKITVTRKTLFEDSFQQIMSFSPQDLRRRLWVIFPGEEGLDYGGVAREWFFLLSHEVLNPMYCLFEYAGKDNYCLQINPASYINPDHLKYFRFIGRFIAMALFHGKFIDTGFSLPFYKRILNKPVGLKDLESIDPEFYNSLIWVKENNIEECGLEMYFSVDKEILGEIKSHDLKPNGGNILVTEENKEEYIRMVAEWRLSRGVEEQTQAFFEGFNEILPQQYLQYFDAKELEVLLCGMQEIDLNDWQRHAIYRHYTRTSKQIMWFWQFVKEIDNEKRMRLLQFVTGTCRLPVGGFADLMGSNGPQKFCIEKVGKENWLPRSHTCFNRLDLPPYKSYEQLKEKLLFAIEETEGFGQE
UniProt Q9DBH0: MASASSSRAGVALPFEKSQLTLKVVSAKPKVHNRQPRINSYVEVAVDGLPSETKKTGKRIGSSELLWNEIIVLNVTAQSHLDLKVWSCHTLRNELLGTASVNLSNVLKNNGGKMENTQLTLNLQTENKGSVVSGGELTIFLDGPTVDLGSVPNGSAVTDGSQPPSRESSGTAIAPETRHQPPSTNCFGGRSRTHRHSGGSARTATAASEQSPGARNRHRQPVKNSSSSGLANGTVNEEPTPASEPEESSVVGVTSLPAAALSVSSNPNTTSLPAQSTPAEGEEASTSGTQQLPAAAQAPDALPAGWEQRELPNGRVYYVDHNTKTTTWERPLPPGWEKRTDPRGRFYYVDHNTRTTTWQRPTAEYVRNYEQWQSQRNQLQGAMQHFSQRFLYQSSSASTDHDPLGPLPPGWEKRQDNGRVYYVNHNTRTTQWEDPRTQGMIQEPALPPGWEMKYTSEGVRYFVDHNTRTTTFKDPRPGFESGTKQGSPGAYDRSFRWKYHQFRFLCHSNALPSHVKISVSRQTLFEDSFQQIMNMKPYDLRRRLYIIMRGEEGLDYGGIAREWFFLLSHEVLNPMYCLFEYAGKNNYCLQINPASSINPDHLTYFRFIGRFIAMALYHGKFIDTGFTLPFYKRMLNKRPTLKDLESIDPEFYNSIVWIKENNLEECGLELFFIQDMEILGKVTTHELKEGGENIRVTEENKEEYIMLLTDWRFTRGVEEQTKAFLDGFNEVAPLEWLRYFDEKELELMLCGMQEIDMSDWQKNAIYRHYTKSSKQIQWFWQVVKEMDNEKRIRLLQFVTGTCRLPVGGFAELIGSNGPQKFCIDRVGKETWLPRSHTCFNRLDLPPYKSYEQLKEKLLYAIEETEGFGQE
UniProt P42227: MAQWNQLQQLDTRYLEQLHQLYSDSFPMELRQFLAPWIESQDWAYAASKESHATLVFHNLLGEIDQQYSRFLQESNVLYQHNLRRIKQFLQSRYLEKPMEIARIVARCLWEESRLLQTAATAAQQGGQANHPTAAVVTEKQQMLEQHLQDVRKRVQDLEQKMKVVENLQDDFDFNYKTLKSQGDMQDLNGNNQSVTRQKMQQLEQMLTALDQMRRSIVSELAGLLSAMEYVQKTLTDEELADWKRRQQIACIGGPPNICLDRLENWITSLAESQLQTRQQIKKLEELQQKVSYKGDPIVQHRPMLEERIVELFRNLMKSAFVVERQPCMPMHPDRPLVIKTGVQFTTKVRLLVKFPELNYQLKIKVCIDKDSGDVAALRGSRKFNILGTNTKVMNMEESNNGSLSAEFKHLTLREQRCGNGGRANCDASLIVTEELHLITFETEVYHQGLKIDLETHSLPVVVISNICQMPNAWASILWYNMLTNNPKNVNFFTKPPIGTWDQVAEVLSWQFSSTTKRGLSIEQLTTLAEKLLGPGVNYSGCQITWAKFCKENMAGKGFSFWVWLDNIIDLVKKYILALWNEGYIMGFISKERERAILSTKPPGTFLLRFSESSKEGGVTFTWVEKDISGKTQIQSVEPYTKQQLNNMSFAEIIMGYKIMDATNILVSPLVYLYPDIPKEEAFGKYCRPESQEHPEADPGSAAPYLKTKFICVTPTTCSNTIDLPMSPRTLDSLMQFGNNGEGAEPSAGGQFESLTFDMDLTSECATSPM

Legend:
[1] = molecular target: Flag-tagged Itch (UniProt Q8C863); assay: co-IP; 293T cells co-transfected with Myc-tagged Stat3 and Flag-tagged Wwp2 (or Itch); IP with anti-Flag antibody, IB with anti-Myc antibody
[2] = molecular target: Flag-tagged Wwp2 (UniProt Q9DBH0); assay: as above
[3] = molecular target: signal transducers and activators of transcription 3 (STAT3) (mouse (endogenous in splenic CD4+ T cells)) (UniProt P42227); assay: co-IP; endogenous proteins; lysates of splenic CD4+ T cells from WT and RACK1 KO mice at day 5 of P. yoelii 17XNL infection; Co-IP lysis buffer (10 mM Tris-Cl pH7.5, 2 mM EDTA, 1% NP-40, 150 mM NaCl); primary antibody (anti-RACK1 or anti-STAT3) and Protein A/G-plus agarose, 4°C, 4 h; immunoblot

| binding [1] | binding [2] | binding [3] | Substance |
| --- | --- | --- | --- |
| binds | binds |  | Myc-tagged Stat3 (from UniProt P42227 1-770) |
|  |  | binds | Wwp2 (from UniProt Q9DBH0 1-870) (enzyme) |
|  |  | binds | Itch (from UniProt Q8C863 1-864) (enzyme) |
